We go through two molecules from the supplement of paper PMC10032668.

Chains of the proteins cited; added tags and fusions are not shown.
DNAJB1, P25685, UniProt P25685, whole entry: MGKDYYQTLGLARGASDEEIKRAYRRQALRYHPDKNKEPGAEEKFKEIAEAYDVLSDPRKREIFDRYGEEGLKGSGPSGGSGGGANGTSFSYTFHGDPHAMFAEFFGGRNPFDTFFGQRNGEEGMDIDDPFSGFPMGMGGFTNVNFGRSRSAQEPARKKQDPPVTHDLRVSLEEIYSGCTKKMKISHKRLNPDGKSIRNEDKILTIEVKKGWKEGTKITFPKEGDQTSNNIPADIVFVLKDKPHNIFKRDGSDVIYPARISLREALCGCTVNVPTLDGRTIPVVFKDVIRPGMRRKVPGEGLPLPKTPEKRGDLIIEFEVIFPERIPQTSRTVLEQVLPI
EIF3D, O15371, UniProt O15371, whole entry: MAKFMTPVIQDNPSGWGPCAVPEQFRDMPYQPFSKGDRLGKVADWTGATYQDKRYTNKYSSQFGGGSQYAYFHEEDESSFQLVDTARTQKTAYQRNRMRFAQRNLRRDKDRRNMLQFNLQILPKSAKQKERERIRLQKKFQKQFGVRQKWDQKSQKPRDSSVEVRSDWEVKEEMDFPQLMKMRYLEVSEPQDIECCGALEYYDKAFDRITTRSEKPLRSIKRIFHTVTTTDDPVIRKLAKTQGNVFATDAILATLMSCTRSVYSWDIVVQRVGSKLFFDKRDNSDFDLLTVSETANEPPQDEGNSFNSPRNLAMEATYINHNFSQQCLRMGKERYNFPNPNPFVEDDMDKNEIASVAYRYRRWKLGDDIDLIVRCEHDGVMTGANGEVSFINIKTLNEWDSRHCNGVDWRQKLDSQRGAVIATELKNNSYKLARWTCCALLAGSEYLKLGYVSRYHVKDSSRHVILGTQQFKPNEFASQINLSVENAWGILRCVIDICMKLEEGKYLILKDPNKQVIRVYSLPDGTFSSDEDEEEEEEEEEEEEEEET
MORF4L2, Q15014, UniProt Q15014, whole entry: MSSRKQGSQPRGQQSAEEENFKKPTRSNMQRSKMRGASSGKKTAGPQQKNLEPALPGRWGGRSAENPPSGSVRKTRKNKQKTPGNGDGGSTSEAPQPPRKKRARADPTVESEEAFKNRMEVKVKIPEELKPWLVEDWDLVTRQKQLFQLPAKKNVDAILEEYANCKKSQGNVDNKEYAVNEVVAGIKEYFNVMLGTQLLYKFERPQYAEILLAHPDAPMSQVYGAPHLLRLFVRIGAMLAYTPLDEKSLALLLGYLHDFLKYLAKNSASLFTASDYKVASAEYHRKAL
DEFA3, P59666, UniProt P59666, whole entry: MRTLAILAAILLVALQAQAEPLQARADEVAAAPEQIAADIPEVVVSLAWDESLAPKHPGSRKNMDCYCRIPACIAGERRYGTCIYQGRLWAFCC
DLD, P09622, UniProt P09622, whole entry: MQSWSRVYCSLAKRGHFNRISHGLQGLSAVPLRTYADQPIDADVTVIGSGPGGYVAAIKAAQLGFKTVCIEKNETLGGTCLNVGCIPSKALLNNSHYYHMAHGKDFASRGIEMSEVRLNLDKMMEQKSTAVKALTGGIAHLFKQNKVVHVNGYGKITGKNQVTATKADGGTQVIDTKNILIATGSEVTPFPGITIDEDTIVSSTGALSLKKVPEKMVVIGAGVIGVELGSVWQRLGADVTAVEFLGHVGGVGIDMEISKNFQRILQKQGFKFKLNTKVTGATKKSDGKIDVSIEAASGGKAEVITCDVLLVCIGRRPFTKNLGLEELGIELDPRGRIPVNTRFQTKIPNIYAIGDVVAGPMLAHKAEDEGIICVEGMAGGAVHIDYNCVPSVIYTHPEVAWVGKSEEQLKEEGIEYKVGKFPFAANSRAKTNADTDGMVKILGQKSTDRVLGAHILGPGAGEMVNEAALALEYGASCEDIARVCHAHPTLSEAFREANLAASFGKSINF
EIF3G, O75821, UniProt O75821, whole entry: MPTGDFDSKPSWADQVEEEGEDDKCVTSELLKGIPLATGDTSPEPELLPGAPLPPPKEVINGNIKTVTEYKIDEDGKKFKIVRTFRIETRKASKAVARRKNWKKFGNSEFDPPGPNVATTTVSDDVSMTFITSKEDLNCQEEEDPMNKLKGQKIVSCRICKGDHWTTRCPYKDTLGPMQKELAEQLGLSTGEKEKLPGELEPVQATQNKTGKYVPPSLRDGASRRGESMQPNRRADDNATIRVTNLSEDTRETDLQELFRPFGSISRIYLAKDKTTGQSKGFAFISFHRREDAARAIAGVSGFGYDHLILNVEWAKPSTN
GTF2F2, P13984, UniProt P13984, whole entry: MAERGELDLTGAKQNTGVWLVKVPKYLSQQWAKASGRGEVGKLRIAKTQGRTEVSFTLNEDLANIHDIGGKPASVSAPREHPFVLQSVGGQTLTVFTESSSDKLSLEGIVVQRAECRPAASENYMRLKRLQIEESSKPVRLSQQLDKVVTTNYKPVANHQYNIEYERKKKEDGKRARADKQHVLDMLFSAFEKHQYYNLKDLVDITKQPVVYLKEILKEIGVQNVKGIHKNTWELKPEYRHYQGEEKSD
HSPB1, P04792, UniProt P04792, whole entry: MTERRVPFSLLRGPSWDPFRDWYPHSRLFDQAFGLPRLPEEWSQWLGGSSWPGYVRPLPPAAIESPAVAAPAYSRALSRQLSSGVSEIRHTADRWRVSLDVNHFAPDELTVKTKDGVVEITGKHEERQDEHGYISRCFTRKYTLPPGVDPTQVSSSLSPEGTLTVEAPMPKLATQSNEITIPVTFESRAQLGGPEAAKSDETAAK

This is one part of the list. The list holds hits alone, and they repeat only in part.

Assay in all cases: PRISMA enrichment of interactor (LFQ) in peptide spot vs all other peptide spots (log2 fold change); higher = stronger / more specific binding of the interactor to the peptide
The target in assay [1] is CHEK1, O14757. How it is done: (§1)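 PRISMA: 15-aa overlapping tiles (offset 8 aa) of 60 microproteins, plus SOS1/GLUT1 control peptides, were spot-synthesized on cellulose membranes in triplicate. Membranes were incubated with benzonase-treated HEK293T lysate, and bound proteins were identified by LC-MS/MS with LFQ. Enrichment is the log2 fold change of each protein in one spot versus all other spots. Only interactors passing the significance cutoff are listed.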

In assay [2] the target is DNAJB1, P25685. How it is done: as §1
For assay [3], the target named is EIF3D, O15371. How it is done:
as §1

The target of assay [4] is FYTTD1, Q96QD9. How it is done:
as §1

The target of assay [5] is GLO1, Q04760. How it is done: as §1
Assay [6] addresses MMS19, Q96T76. How it is done: as §1
Assay [7] concerns the target MORF4L2, Q15014. How it is done: as §1
Assay [8] concerns the target MRPS2, Q9Y399. How it is done: as §1
Assay [9] concerns the target MRPS35, P82673. How it is done:
as §1

Assay [10] has as its target NOB1, Q9ULX3. How it is done: as §1
Assay [11] has as its target NXF1, Q9UBU9. How it is done: as §1
Assay [12] deals with ODF2, Q5BJF6. How it is done: as §1
The target of assay [13] is PPIL2, Q13356. How it is done:
as §1

In assay [14] the target is RPP25L, Q8N5L8. How it is done: as §1
Assay [15] deals with SAE1, Q9UBE0. How it is done: as §1
In assay [16] the target is SAP18, O00422. How it is done:
as §1

Assay [17] deals with SIRT1, Q96EB6. How it is done: as §1
Assay [18] has as its target SND1, Q7KZF4. How it is done: as §1
Assay [19] deals with TK1, P04183. How it is done:
as §1

The target in assay [20] is XRN1, Q8IZH2. How it is done:
as §1

Assay [21] deals with YTHDF1, Q9BYJ9. How it is done:
as §1

In assay [22] the target is YWHAZ, P63104. How it is done:
as §1

Assay [23] addresses hCG_1984214. How it is done:
as §1

Assay [24] addresses CDK12, Q9NYV4. How it is done:
as §1

Assay [25] deals with DCP1A, Q9NPI6. How it is done: as §1
Assay [26] has as its target DEFA3, P59666. How it is done:
as §1

The target of assay [27] is DLD, P09622. How it is done: as §1
Assay [28] concerns the target EARS2, Q5JPH6. How it is done: as §1
Assay [29] addresses EDC4, Q6P2E9. How it is done: as §1
Assay [30] deals with EIF3G, O75821. How it is done: as §1
The target of assay [31] is GTF2F2, P13984. How it is done:
as §1

In assay [32] the target is HSPB1, P04792. How it is done:
as §1

In assay [33] the target is MAP7, Q14244. How it is done: as §1
Assay [34] has as its target MCM5, P33992. How it is done: as §1
The target of assay [35] is NSA2, O95478. How it is done: as §1
Assay [36] deals with NSD2, O96028. How it is done: as §1
Assay [37] deals with NUP98, P52948. How it is done:
as §1

The target in assay [38] is OAT, P04181. How it is done:
as §1

In assay [39] the target is ORC5, O43913. How it is done:
as §1

For assay [40], the target named is S100A9, P06702. How it is done:
as §1

In assay [41] the target is SBDS, Q9Y3A5. How it is done:
as §1

Assay [42] has as its target SDF2L1, Q9HCN8. How it is done: as §1
Assay [43] deals with SGPP1, Q9BX95. How it is done:
as §1

Regarding MAGTGHPLPRLFTTK [RP11-140K17.3_2], the “PRISMA enrichment of interactor (log2)” value in assay [1] came out at 5.25; in [2], 4.65; in assay [3], 5.09; in assay [4], 7.39; in assay [5] it was 4.73; in [6], 8.27. The “PRISMA enrichment of interactor (log2)” value in assay [7] was 4.93; in assay [8], 5.01; in assay [9] it was 4.92; in assay [10], 4.71; in assay [11] it was 4.88; in assay [12], 7.01. Also, the “PRISMA enrichment of interactor (log2)” value came to 5.6 in assay [13]; 3.9 in assay [14]; 5.51 in assay [15]; 5.21 in assay [16]; 6.39 in assay [17]; 5.62 in assay [18]. For the same molecule, the “PRISMA enrichment of interactor (log2)” value came to 6.18 in [19]; 5.41 in [20]; 4.57 in [21]; 5.39 in [22]; 4.61 in assay [23].

On to LCMAMVRKSSALGKE [IDI2-AS1], for which the “PRISMA enrichment of interactor (log2)” value in assay [24] worked out at 4.81; in assay [25] it was 3.97; in assay [26] it was 4.76; in assay [27] it was 6.29; in [28], 5.59; in assay [29], 4.37. The “PRISMA enrichment of interactor (log2)” value in [30] was 8.55; in [31], 4.96; in assay [32] it was 5.52; in assay [33], 6.16; in assay [34], 5.42; in assay [35] it was 4.73. Also, the “PRISMA enrichment of interactor (log2)” value in [36] was 9.72; in [37] it was 6.1; in assay [38], 5; in assay [39], 6.02; in assay [40] it was 7.63; in assay [41], 5.29. Besides, the “PRISMA enrichment of interactor (log2)” value is 4.92 in assay [42] and 4.58 in assay [43].
